Where a name gives a salt, the structure may show the parent alone. The list shows a part of the results. The data scatter; read single values as rough.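 Optical density at 600 nm measured yeast growth. Because the two-hybrid strains grew without histidine, growth required Pex3–Pex19 binding. Trypanosome selectivity meant a compound inhibited the trypanosome-pair strain's growth by more than 65% but the human-pair strain's by less than 65%.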
What was measured:
[1] = test system: Saccharomyces cerevisiae HF7c pdr5Δ; experiment: general growth inhibition of yeast HF7c pdr5Δ in -Leu -Trp medium, relative to DMSO; higher = stronger general growth inhibition; settings: 100 µM; 24 h
[2] = test system: human PEX3-PEX19 interaction (yeast two-hybrid); experiment: growth inhibition of yeast two-hybrid strain reporting HsPex3-HsPex19 interaction, relative to DMSO; higher = stronger inhibition of human Pex3-Pex19 interaction / growth; settings: 100 µM; 24 h; 3-aminotriazole 10 mM
[3] = test system: T. brucei Pex3-Pex19 interaction (yeast two-hybrid); experiment: growth inhibition of yeast two-hybrid strain reporting TbPex3-TbPex19 interaction, relative to DMSO; higher = stronger inhibition of T. brucei Pex3-Pex19 interaction / growth; settings: 100 µM; 24 h

Row | Structure (SMILES) | general growth inhibition [1] [%] | growth inhibition [2] [%] | growth inhibition [3] [%]
1 | NC(=O)c1cn(Cc2c(F)cccc2F)nn1 [Rufinamide] | 32.4 | 39.2 | 59
2 | C=Cc1c(C)c2cc3[nH]c(cc4nc(cc5nc(cc1[nH]2)C(C)=C5CCC(=O)O)C(CCC(=O)O)=C4C)c(C)c3C=C [Protoporphyrin IX disodium] | 1.33 | -41.3 | -18.4
3 | C[N+](C)(C)CCOC(N)=O [Carbachol] | 38.1 | 33.7 | 49.8
4 | CC(N)(Cc1ccc(O)c(O)c1)C(=O)O (racemic) [(±)-3-(3,4-dihydroxyphenyl)-2-methyl-DL-alanine] | 52.4 | 52.4 | 59
5 | CCN(CC)CCCCNc1ncc2cc(-c3c(Cl)cccc3Cl)c(NC(=O)NC(C)(C)C)nc2n1 | 6 | -9.45 | 21.2
6 | O=C1NC(=O)/C(=C/c2ccc(-c3ccc(F)cc3O)o2)S1 | 16.3 | 5.56 | 33.9
7 | COCCOc1cc2ncnc(Cl)c2cc1OCCOC | 48.4 | 35.7 | 65.6
8 | CN(CC[C@@H](Oc1ccc(C(F)(F)F)cc1)c1ccccc1)CC(=O)[O-].[Li+] | 40.3 | 37.6 | 60.2
9 | Cc1cn([C@H]2C[C@H](N=[N+]=[N-])[C@@H](CO)O2)c(=O)[nH]c1=O [3'-Azido-3'-deoxythymidine] | 39.2 | 36.8 | 59.5
10 | CCN(CC)CCNC(=O)c1ccc(N)cc1 [Procainamide hydrochloride] | 49.3 | 42.2 | 68.4
11 | O=C(CCc1ccc(O)cc1)c1c(O)cc(O)cc1O [Phloretin] | 38.3 | 42.3 | 56.5
12 | CN(C)c1ccc(O)c2c1C[C@H]1C[C@H]3[C@H](N(C)C)C(O)=C(C(N)=O)C(=O)[C@@]3(O)C(O)=C1C2=O [Minocycline hydrochloride] | 29 | 32.4 | 53
13 | NS(=O)(=O)c1cc2c(cc1Cl)N=CNS2(=O)=O [Chlorothiazide] | 46.4 | 45.8 | 65
14 | N[C@@H](CC(=O)O)C(=O)O [L-Aspartic acid] | 45.3 | 37.4 | 57.2
15 | COc1cc(C(O)C(=O)O)ccc1O (racemic) [(±)-Vanillylmandelic acid] | 38.7 | 42.5 | 58.4
16 | CN(C)CCC=C1c2ccccc2C=Cc2ccccc21 [Cyclobenzaprine hydrochloride] | 30.4 | 37.5 | 39.2
17 | CNC(=O)c1cc2c(cn1)[nH]c1ccccc12 [N-Methyl-beta-carboline-3-carboxamide] | 33.2 | 38.9 | 51.2
18 | C=C(c1ccc(C(=O)O)cc1)c1cc2c(cc1C)C(C)(C)CCC2(C)C [Bexarotene] | 31.5 | 8.9 | 41.9
19 | Cc1ccccc1C(OCCN(C)C)c1ccccc1 (stereo not given) [Orphenadrine hydrochloride] | 46.5 | 41 | 58.2
20 | CCCN(CCC)C(=O)C(CCC(=O)O)NC(=O)c1ccccc1 (stereo not given) [Proglumide] | 51.6 | 39.2 | 62.2
21 | CN1CCC(=C2c3ccccc3CC(=O)c3sccc32)CC1 [Ketotifen fumarate] | 45.7 | 43.8 | 67.4
22 | CNCC[C@@H](Oc1ccccc1C)c1ccccc1 [Tomoxetine] | 42 | 38 | 56.5
23 | N[C@@H]1CONC1=O [D-Cycloserine] | 39 | 41.1 | 58.6
24 | CC(C)(Oc1ccc(CCNC(=O)c2ccc(Cl)cc2)cc1)C(=O)O [Bezafibrate] | 26.7 | 39.6 | 49

Row | Structure (SMILES) | general growth inhibition [1] [%] | growth inhibition [2] [%] | growth inhibition [3] [%]
25 | Nc1nc(OCc2ccccc2)c2nc[nH]c2n1 [O6-benzylguanine] | 34.6 | 31.9 | 40.7
26 | Nc1nc2ccc(Cl)cc2c2nc(-c3ccco3)nn12 | 22.3 | 27.4 | 33.2
27 | CC(C(O)c1ccc(O)cc1)N1CCC(Cc2ccccc2)CC1 (stereo not given) [Ifenprodil tartrate] | 33.3 | 38.2 | 47.6
28 | N=C(N)c1ccc(N)cc1 [4-Aminobenzamidine dihydrochloride] | 45.8 | 42.8 | 55.5
29 | N[C@@H](CCC(=O)N[C@@H](CSN=O)C(=O)NCC(=O)O)C(=O)O [S-Nitrosoglutathione] | 58.8 | 50.9 | 70.1
30 | CCCCCCCCc1ccc(-c2ccc(C(=O)O)cc2)cc1 | 49 | 28.3 | 51.4
31 | CN(CCCOc1ccc(Cc2ccccc2)cc1)CCC(=O)O | 54 | 39.5 | 65.8
32 | Cn1cc(C2=C(c3ccc(Cl)cc3Cl)C(=O)NC2=O)c2ccccc21 | 35 | 24.2 | 43.6
33 | NS(=O)(=O)c1cc2c(cc1Cl)NCNS2(=O)=O [Hydrochlorothiazide] | 36.8 | 33.2 | 58
34 | O=C(O)[C@H](CC(=O)N1C[C@H]2CCCC[C@H]2C1)Cc1ccccc1 [Mitiglinide calcium] | 45.6 | 49.9 | 67.6
35 | O=c1ccc2ccc(O)c(O)c2o1 [Daphnetin] | 13.7 | 12.6 | 31.4
36 | NCCS(=O)(=O)O [Taurine] | 49.6 | 51.9 | 65
37 | Cc1oncc1C(=O)Nc1ccc(C(F)(F)F)cc1 [Leflunomide] | 23.4 | 6.43 | 15.7
38 | Nc1nc2ccc(Cl)cc2n2c(-c3ccccc3)nnc12 | 55.6 | 45 | 57.1
39 | CC(=O)NNC(=O)N1Cc2ccccc2Oc2ccc(Cl)cc21 | 48.6 | 46.1 | 68.5
40 | O=[N+]([O-])c1cccc2cn[nH]c12 [7-Nitroindazole] | 48.8 | 46.9 | 71.7
41 | Cc1cccc(C)c1OCC(C)N (stereo not given) [Mexiletene hydrochloride] | 47.9 | 47.2 | 64.2
42 | COc1ccc(C2(O)OC(=O)C(c3ccc4c(c3)OCO4)=C2Cc2cc(OC)c(OC)c(OC)c2)cc1 (stereo not given) | 38.7 | 22.1 | 39.7
43 | O=P(O)(O)C(O)(Cn1ccnc1)P(=O)(O)O [Zoledronic acid monohydrate] | 52 | 48.5 | 67.8
44 | CSc1ccc(C(=O)c2[nH]c(=O)[nH]c2C)cc1 [Enoximone] | 2.07 | 4.29 | 28.8
45 | CCCn1c(=O)[nH]c(=O)c2[nH]cnc21 [3-n-Propylxanthine] | 55.3 | 43.8 | 65.7
46 | CNCCCC1c2ccccc2C=Cc2ccccc21 [Protriptyline hydrochloride] | 51.5 | 42.3 | 51.4
47 | O=C(c1ccc(OCCN2CCCCC2)cc1)c1c(-c2ccc(O)cc2)sc2cc(O)ccc12 [Raloxifene hydrochloride] | 33.6 | 24.8 | 56.5
48 | CC(CCc1ccccc1)NCC(O)c1ccc(O)c(C(N)=O)c1 (stereo not given) [Labetalol hydrochloride] | 49.8 | 38.9 | 65.8

Row | Structure (SMILES) | general growth inhibition [1] [%] | growth inhibition [2] [%] | growth inhibition [3] [%]
49 | CCC(NC(C)C)C(O)c1ccc(O)c(O)c1 (stereo not given) [Isotharine mesylate] | 53.2 | 37.7 | 55.1
50 | CC(C)Cn1c(=O)n(C)c(=O)c2[nH]cnc21 [3-Isobutyl-1-methylxanthine] | 17.7 | 20.3 | 36.3
51 | CNS(=O)(=O)CCc1ccc2[nH]cc(C3CCN(C)CC3)c2c1 [Naratriptan hydrochloride] | 25.3 | 37 | 56.1
52 | O=C(O)Cc1ccccc1Nc1c(Cl)cccc1Cl [Diclofenac sodium] | 79.4 | 79.4 | 84
53 | c1ccc2c(c1)CCCC2C1=NCCN1 (stereo not given) [Tetrahydrozoline hydrochloride] | 34.5 | 51.6 | 74.3
54 | Cc1nc(N=Nc2ccc(S(=O)(=O)O)cc2S(=O)(=O)O)c(COP(=O)(O)O)c(C=O)c1O | 48.5 | 38.4 | 60.3
55 | N[C@@H](CS(=O)O)C(=O)O [L-Cysteinesulfinic Acid] | 46.3 | 40.3 | 63.5
56 | CC(=O)[C@@]1(O)CC[C@H]2[C@@H]3CCC4=CC(=O)CC[C@]4(C)[C@H]3CC[C@@]21C [17alpha-hydroxyprogesterone] | 42.6 | 32.6 | 48
57 | CSc1ccc2c(c1)C(N1CCN(C)CC1)Cc1ccccc1S2 (stereo not given) [Methiothepin mesylate] | 41.6 | 36.9 | 49.8
58 | Cc1cc2c(s1)Nc1ccccc1N=C2N1CCN(C)CC1 [Olanzapine] | 46.4 | 45.3 | 66.6
59 | CC(C)(C)c1cc(/C=C(\C#N)C(N)=S)cc(C(C)(C)C)c1O [Tyrphostin AG 879] | 42.4 | 22.5 | 41.5
60 | O=C(Nc1ccccc1C(=O)NC1CCCCNC1=O)c1cc2ccccc2s1 (stereo not given) | 48.3 | 46.6 | 57.5
61 | CN(C)CCOC(=O)COc1ccc(Cl)cc1 [Centrophenoxine hydrochloride] | 50.6 | 40 | 56.7
62 | C[N+]1(CCCCC[N+]2(C)CCCC2)CCCC1 [Pentolinium di[L(+)-tartrate]] | 39.1 | 43.1 | 56.3
63 | C[C@@H]1O[C@@H]1P(=O)(O)O [Phosphomycin disodium] | 15.8 | 14.4 | 36.5
64 | NCCCCN [Putrescine dihydrochloride] | 47.2 | 46.9 | 62.5
65 | COc1cc2nc(N(C)CCCNC(=O)C3CCCO3)nc(N)c2cc1OC (stereo not given) [Alfuzosin hydrochloride] | 35.1 | 32.5 | 42.5
66 | CNCCNS(=O)(=O)c1cccc2cnccc12 [H-8 dihydrochloride] | 47.7 | 41.3 | 61
67 | Clc1ccc2nsnc2c1NC1=NCCN1 [Tizanidine hydrochloride] | 40.3 | 45.8 | 56.2
68 | Clc1ccc(Cn2c(CN3CCCC3)nc3ccccc32)cc1 [Clemizole hydrochloride] | 42.7 | 38.4 | 60.1
69 | NC[C@@H]1O[C@H](c2ccccc2)Cc2c1ccc(O)c2O | 54.6 | 46.7 | 68.9
70 | CN[C@H](CC(=O)O)C(=O)O [N-Methyl-D-aspartic acid] | 45.5 | 47.1 | 70.4

Quoted at random: four compounds from above, in no set order.
Row | Structure (SMILES) | general growth inhibition [1] [%] | growth inhibition [2] [%] | growth inhibition [3] [%]
62 | C[N+]1(CCCCC[N+]2(C)CCCC2)CCCC1 [Pentolinium di[L(+)-tartrate]] | 39.1 | 43.1 | 56.3
55 | N[C@@H](CS(=O)O)C(=O)O [L-Cysteinesulfinic Acid] | 46.3 | 40.3 | 63.5
53 | c1ccc2c(c1)CCCC2C1=NCCN1 (stereo not given) [Tetrahydrozoline hydrochloride] | 34.5 | 51.6 | 74.3
63 | C[C@@H]1O[C@@H]1P(=O)(O)O [Phosphomycin disodium] | 15.8 | 14.4 | 36.5

— the supplement of paper PMC8326762, “A Small Molecule Inhibitor of Pex3–Pex19 Interaction Disrupts Glycosome Biogenesis and Causes Lethality in Trypanosoma brucei” (Frontiers in Cell and Developmental Biology, 2021)
